The target of the experiment is PRMT1 with Myc tag, expressed from the adenovirus Ad-PRMT1 in mouse primary hepatocytes (UniProt Q9JIF0). As to the kind of experiment: co-IP; lysate of mouse primary hepatocytes infected by Ad-PRMT1 (IP RIPA buffer lacking SDS); immunoprecipitation with Myc-tag antibodies and Protein A/G beads at 4 °C overnight, blot for Myc and CFLAR; IgG as control.

Chains of the proteins cited; added tags and fusions are not shown.
UniProt Q9JIF0: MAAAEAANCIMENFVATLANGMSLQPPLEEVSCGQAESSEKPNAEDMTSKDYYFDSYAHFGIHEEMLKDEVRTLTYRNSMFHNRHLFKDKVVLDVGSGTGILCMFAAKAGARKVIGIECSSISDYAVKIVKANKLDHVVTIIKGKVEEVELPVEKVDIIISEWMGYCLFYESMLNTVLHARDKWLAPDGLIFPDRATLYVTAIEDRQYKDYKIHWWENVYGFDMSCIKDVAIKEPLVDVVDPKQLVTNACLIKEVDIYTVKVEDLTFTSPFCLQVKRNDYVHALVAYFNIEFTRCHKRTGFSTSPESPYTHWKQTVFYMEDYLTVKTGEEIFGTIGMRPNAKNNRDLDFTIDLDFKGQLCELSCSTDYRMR
UniProt O35732: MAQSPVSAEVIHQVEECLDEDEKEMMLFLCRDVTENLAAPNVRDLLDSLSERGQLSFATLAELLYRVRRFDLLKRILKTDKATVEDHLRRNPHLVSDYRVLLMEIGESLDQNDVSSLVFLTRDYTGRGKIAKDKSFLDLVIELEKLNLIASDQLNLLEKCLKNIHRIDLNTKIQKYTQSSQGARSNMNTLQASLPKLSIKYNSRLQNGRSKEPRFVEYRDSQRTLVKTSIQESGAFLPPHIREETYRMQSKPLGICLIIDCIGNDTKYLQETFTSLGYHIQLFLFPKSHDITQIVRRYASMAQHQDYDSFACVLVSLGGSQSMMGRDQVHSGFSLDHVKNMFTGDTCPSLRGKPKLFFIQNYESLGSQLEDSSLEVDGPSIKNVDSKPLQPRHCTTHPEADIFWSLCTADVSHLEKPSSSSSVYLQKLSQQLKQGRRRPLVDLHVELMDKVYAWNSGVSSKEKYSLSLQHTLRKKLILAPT

Results are given in words; binding and its absence hold for the method and conditions named. In cells and extracts the contact can be indirect. Some binding calls cover weakened binding; strength is not graded here.

Turning to “Caspase 8 and FADD-like apoptosis regulator (CFLAR), endogenous in mouse primary hepatocytes (from UniProt O35732 1-481)”, the binding entry was “binds”.

These data come from PMC11277202.
